A short description of the assay: qHTS Assay for Lipid Storage Modulators in Drosophila S3 Cells.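 For cell number change: cells counted by Cell Tracker Red CMTPX staining in the red channel.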 To be noted: BODIPY lipid droplet fluorescence, 18-24 h; for cell number change: measured here: cell count max response, cells fed with added oleic acid. The method, boiled down: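 Laser-scanning cytometry quantifies lipid droplet accumulation (500–530 nm total intensity; droplet/cell object ratio) in oleic acid-fed (400 uM added) Drosophila S3 cells treated with a concentration series. 20 uM Triacsin C defined 100% inhibition.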
Background: qHTS replaces the single test concentration by a dilution series.

Setting [1] is: measured here: cell number channel AC50, cells fed with added oleic acid.
Setting [2] is: measured here: lipid fluorescence (Fed channel) AC50, cells fed with added oleic acid.

Some of the results follow. The main result of the screen is listed elsewhere. These columns were measured beside it and carry no call. Most of these compounds were active or inconclusive in the main read-out, so they are no random draw. Words in brackets tell the shape of the fitted curve; partial curves, single points and poor fits give uncertain potencies.

Consider `Cc1cc(NC(=O)CSc2ccc3nnc(-c4cccs4)n3n2)no1`, for which the cell number change is -43.3%. For the same compound, the AC50 (usually the midpoint of the concentration-response curve, whichever way the signal moves) under setting [1] was 29.1 µM [falling, single point]. The AC50 under setting [2] was 0.651 µM [falling, partial curve, poor fit].

As to `Cc1ccc(S(=O)(=O)N2CCCC(C(=O)NCCc3ccc(S(N)(=O)=O)cc3)C2)cc1` (stereo not given), the cell number change was -13.3%. Besides, the AC50 under setting [2] was 29.1 µM [rising, single point].

`COc1ccc(-c2cc(C(=O)NC(C)C)no2)cc1`: the cell number change is 112%. The AC50 under setting [1] was 18.4 µM [rising, partial curve]. The AC50 under setting [2] is 18.4 µM [rising, partial curve].

Take `CN(C(=O)c1ccccc1)c1nc2ccccc2s1`: the cell number change came to 114%. The AC50 under setting [1] is 14.6 µM [rising, partial curve]. In addition, the AC50 under setting [2] is 2.91 µM [rising, partial curve].

On to `CCOc1nc(Nc2ccccc2F)nc(OCC)n1`, for which the cell number change is -2.12%. Besides, the AC50 under setting [1] is 0.0517 µM [falling, full curve, poor fit]. Under setting [2], the AC50 was 3.66 µM [falling, partial curve, poor fit].

In the case of `CCN1CCN(C(CNS(=O)(=O)c2ccc(C)cc2)c2cccnc2)CC1` (stereo not given), the cell number change was 13.1%. In addition, the concentration at half-maximal activity (AC50) under setting [2] is 0.103 µM [falling, full curve].

As for `COc1nc(NCCC2=CCCCC2)nc(OC)n1`, the cell number change is -17.4%. Besides, the AC50 under setting [2] is 0.13 µM [rising, full curve, poor fit].

As for `O=C(c1ccc(Br)o1)N1CCC(c2nc3ccccc3[nH]2)CC1`, the cell number change worked out at 30.6%. Also, the AC50 under setting [1] was 6.51 µM [rising, partial curve, poor fit]. For the same compound, the AC50 under setting [2] is 25.9 µM [rising, single point].

For `COc1ccc(-c2nc(CS(=O)CC(=O)N3CCN(C)CC3)c(C)o2)cc1` (stereo not given), the cell number change was 14.9%.

As for `CSc1ccccc1NC(=O)Nc1cccc(F)c1`, the cell number change was -2.35%. In addition, the AC50 under setting [2] was 4.11 µM [falling, partial curve, poor fit].

On to `CCOC(=S)SCC(=O)Nc1ncc(C)s1`, for which the cell number change is -43.2%. In addition, the AC50 under setting [1] was 23.1 µM [falling, partial curve, poor fit]. Under setting [2], the AC50 was 29.1 µM [falling, single point].

Regarding `Fc1ccc(N2CCN(Cc3cnc(Oc4ccc(Br)cc4)s3)CC2)cc1`, the cell number change was 2.49%. Moreover, the AC50 under setting [1] was 2.31 µM [rising, partial curve, poor fit].

As for `O=C(Nc1cccc(-n2cnnn2)c1)c1ccc(C(F)(F)F)cc1`, the cell number change was found to be 0.717%. Moreover, the AC50 under setting [2] was 2.91 µM [rising, partial curve].

Turning to `CC1CN(C(=O)COc2ccc3ccccc3c2Br)CC(C)O1` (stereo not given), the cell number change was -6.45%. Also, the AC50 under setting [2] is 2.31 µM [falling, single point].

In the case of `O=C(NN=C1CCN(Cc2ccccc2)CC1)c1cc2ccccc2cc1O`, the cell number change was determined as 9.68%. The AC50 under setting [2] was 8.2 µM [rising, single point].

Values taken from PubChem BioAssay AID2685 (National Center for Advancing Translational Sciences (NCATS), 2010).
